Assay results from PubChem BioAssay AID1671190 (National Center for Advancing Translational Sciences (NCATS), 2021).
Out of some 580,000 compounds screened, about 6,100 (1.1%) were called active. This list was built around the results that the source calls inconclusive (neither active nor inactive); the mix of calls is not that of the screen. Calls follow the shape of the dose curve; as a rule, active = well fitted inhibition curve with a large enough effect; inconclusive = small, poorly fitted or top-dose-only effect, or another doubt; inactive = no such curve, though single readings can be large or run the other way. Potencies beside an inconclusive call are fits to weak or partial responses and may not hold up.

Sequences of proteins named here, by UniProt entry; tags and fusion partners are left off. A change or cut given only in a name is not applied to a line headed by its entry.
UniProt P18054: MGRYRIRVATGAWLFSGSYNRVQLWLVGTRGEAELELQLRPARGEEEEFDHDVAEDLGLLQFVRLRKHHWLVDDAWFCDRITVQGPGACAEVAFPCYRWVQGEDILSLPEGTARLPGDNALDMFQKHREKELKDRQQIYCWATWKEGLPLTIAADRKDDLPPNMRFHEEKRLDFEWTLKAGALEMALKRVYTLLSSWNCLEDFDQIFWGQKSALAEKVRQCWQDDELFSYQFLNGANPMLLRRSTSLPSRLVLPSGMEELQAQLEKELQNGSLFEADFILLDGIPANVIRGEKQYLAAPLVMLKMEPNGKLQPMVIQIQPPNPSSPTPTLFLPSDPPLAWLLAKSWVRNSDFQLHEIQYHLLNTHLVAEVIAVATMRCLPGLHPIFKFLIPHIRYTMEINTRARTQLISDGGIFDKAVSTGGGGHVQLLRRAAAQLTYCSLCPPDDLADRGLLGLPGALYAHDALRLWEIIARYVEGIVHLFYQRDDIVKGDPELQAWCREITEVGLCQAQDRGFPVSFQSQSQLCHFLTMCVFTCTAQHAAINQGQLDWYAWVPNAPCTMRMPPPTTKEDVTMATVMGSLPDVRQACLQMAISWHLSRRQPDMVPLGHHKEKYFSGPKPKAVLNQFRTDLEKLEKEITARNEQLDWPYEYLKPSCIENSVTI

biological target: Polyunsaturated fatty acid lipoxygenase ALOX12 (Homo sapiens) (UniProt P18054); assay: Primary qHTS assay for inhibitors of human arachidonate 12S-lipoxygenase (ALOX12): Round 2; conditions: purified 12hLO, xylenol orange hydroperoxide absorbance; series mostly up to 108 µM
Summary of the method: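 Purified human 12hLO at 150 nM in 25 mM Hepes, 0.01% Triton X-100, pH 7.0, preincubated 15 min at room temperature with compound. Reaction started with 40 uM arachidonic acid, 30 min at room temperature. Hydroperoxide measured by Fe-xylenol orange, 573/405 nm absorbance ratio.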
Potency is read from the fitted curve at half-maximal effect.

| Compound | Potency |
| --- | --- |
| COc1ccc(Cl)cc1CN1C(=O)NC2(CCCCCC2)C1=O | inconclusive: 31.6 µM [inhibitor, partial curve, poor fit] |
| CCCOC(=O)c1ccc(Oc2c(C)oc3cc(OC(=O)N4CCOCC4)ccc3c2=O)cc1 | inactive |
| Cc1ccc(NNC(=O)c2snnc2C)cc1Cl | inconclusive: 141 µM [inhibitor, single point] |
| c1ccc(SCc2nc(-c3ccc(C4CCCCC4)cc3)cs2)cc1 | inconclusive: 39.8 µM [inhibitor, partial curve] |
| O=c1ccnc(Sc2ncccc2[N+](=O)[O-])[nH]1 | inconclusive: 44.7 µM [inhibitor, single point] |
| CCOc1ccc(NS(=O)(=O)c2ccc3c(c2)N(C(C)=O)CCS3)cc1 | inactive |
| CCOc1cc(CNc2ccc(N3CCCC3)cc2)cc(Cl)c1OC | inconclusive: 20 µM [inhibitor, partial curve, poor fit] |
| O=C1/C(=C\c2ccco2)SC(=S)N1c1ccccc1 | inconclusive: 44.7 µM [inhibitor, partial curve, poor fit] |
| CCOC1(OCC)N=C(N)C2(C#N)C(c3cccc(C)c3)C12C#N (stereo not drawn) | inconclusive: 3.98 µM [inhibitor, full curve, poor fit] |
| Cc1cccc(NC(=O)c2sc3nc4c(cc3c2N)CN(C(C)C)CC4)c1 | inconclusive: 112 µM [inhibitor, single point] |
| CCN1CCCC1CNC(=O)c1ccc2c(c1)NC(=O)/C(=C\c1ccccc1Cl)S2 (stereo not drawn) | inconclusive: 44.7 µM [inhibitor, partial curve, poor fit] |
| Cc1ccc(-c2ccc3nnc(CNC(=O)c4ccco4)n3n2)cc1 | inactive |
| CCc1ccc(S(=O)(=O)Nc2ccc3[nH]c(=O)sc3c2)cc1 | inconclusive: 50.1 µM [inhibitor, partial curve, poor fit] |
| N#Cc1ccccc1COC(=O)CCC(=O)c1cccs1 | inconclusive: 44.7 µM [inhibitor, single point] |
| CC(c1nnc(SCC(=O)N(C)C2CCS(=O)(=O)C2)n1-c1ccccc1)N(C)C (stereo not drawn) | inconclusive: 112 µM [inhibitor, single point] |
| Cc1ccc(NC(=O)COc2ccccc2CNC(C)(C)CC(C)(C)C)cc1 | inactive |
| COc1ccc(C(CC(=O)NCc2ccccc2)Sc2n[nH]c(-c3ccccc3)n2)cc1 (stereo not drawn) | inactive |
| COc1ccc(-c2cc(C(=O)N3CCCCC3)c3ccccc3n2)cc1OC | inconclusive: 79.4 µM [inhibitor, partial curve, poor fit] |

2 neighbouring entries already listed, for reference:

| Compound | Potency |
| --- | --- |
| CCOC1(OCC)N=C(N)C2(C#N)C(c3cccc(C)c3)C12C#N (stereo not drawn) | inconclusive: 3.98 µM [inhibitor, full curve, poor fit] |
| Cc1cccc(NC(=O)c2sc3nc4c(cc3c2N)CN(C(C)C)CC4)c1 | inconclusive: 112 µM [inhibitor, single point] |
